Measurements as given in the supplement of paper PMC3334620.
In all, about 33,000 sequences were measured (“E-score (-0.5 to 0.5)”: median about -0.0059, highest 2% from about 0.26 on). This is one part of the list.

Biological target: T1, Cin5 (UniProt P40917)
T1 sequence: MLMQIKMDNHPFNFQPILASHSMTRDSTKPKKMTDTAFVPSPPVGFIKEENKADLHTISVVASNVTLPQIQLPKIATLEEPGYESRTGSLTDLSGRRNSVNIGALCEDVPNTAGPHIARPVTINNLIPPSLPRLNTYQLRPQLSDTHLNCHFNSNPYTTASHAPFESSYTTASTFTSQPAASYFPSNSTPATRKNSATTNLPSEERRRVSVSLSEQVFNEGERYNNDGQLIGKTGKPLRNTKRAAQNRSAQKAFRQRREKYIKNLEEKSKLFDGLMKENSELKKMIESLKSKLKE
Assay: PBM E-score (8-mer binding enrichment) (E-score (-0.5 to 0.5)); higher = stronger / more preferred TF binding
Settings: protein concentration: 100 nM; construct: GST-full length
Method in brief: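 GST-tagged yeast TFs (full-length or DNA-binding domain) were made by PURExpress in vitro transcription/translation and applied at about 100-200 nM to universal all-10-mer Agilent arrays. The arrays were made double-stranded by primer extension, on fresh or once-stripped slides. Bound protein was detected with fluorescent anti-GST, and scans were normalised with masliner. Each ungapped eight-base word, pooled with its reverse complement, received an E-score (modified Wilcoxon-Mann-Whitney statistic) from the Universal PBM Analysis Suite.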

Sequence	PBM E-score
AGCACATC	0.148
GACGGATA	0.154
ATCGCTTA	0.0758
GTCGTTAA	-0.0716
CATTATGA	0.13
CACTAGTG	-0.00593
CCCAAAAC	0.111
AGCCCCTC	-0.00972
CCAGCTTC	-0.145
CGCACTAC	-0.0003
CCCCTACG	-0.194
CACGGTAG	-0.201
ACCACTTG	0.00271
CAAGGATA	0.0136
TAATTATA	0.351
CTGAATAA	0.182
GGCGAAGA	-0.129
AGACGGGG	-0.257
ATAACCCC	-0.0179
CAGTACTA	0.0853
CCGTGTAC	0.102
ACCAAGGA	0.0515
ATCGGGGC	-0.104
AATAGACT	0.0768
ACTCTCCC	-0.0808

Sequence	PBM E-score
GAGCGATC	-0.00059
TCGGCAAA	-0.0563
ATCGCACG	-0.102
GACATAGC	0.0934
AAGCGCGA	0.116
GATCTTGC	0.153
CGACCAGA	-0.0284
ATCAGTTG	0.209
CTTCCATC	-0.032
GACGAAGC	-0.0592
GGAACGAC	-0.21
CGTCCGAC	-0.246
CATCCCCC	-0.403
ATATAGTA	0.235
GCCGCGAA	-0.133
CTAATAGA	0.134
ACCAGGAG	-0.226
ACAAGACC	-0.15
AAGTAGAA	0.0909
CTCGAAGC	-0.239
CGAAATAG	0.00249
AGAGGTAC	-0.218
TCTGCGCA	-0.111
CTCATAAG	0.135
AATTCCTC	0.0202

Sequence	PBM E-score
CCTATATC	0.111
GTCGTGGA	-0.0818
ACATGAGT	-0.0812
GATTTTAC	-0.0152
ACTTGAGC	-0.218
CTATCTAC	0.0602
GCCTGACA	-0.101
TGGAGAAA	-0.101
TACCAACA	0.118
TCTGTGCA	0.118
AATCCCGC	0.162
CCAATCTA	0.118
AGTAAGTC	0.0234
TAGAGGGA	-0.227
CGTATACC	-0.161
CTGTAAAC	0.079
CTTCCCTC	-0.215
ACCTCCCT	-0.161
ACGCCACA	0.0272
AAGCAGGT	0.0448
CGGCATCC	0.0392
ACCGGAGC	-0.237
CGAATACG	0.13
CAACCTCG	-4e-05
CGCCAGTA	-0.0438

Sequence	PBM E-score
AAGGTCCG	-0.247
GATCGTAC	-0.104
GATTCGCC	0.0741
CAGTTTCC	0.0648
TGGCCAAA	0.068
ACCACCTC	0.102
CCCTACAA	0.101
GGAGGGTA	0.00188
AGTCGTCA	-0.172
GGCAAAAA	0.202
AAAACGCG	0.0911
ACATCTCT	0.0525
AACATTTG	-0.00436
CTAGCTTC	-0.0242
ACGAGTAC	0.023
CAACCGTG	-0.0494
CCCACATC	-0.177
AGAGGAGG	-0.237
CACGCCCA	-0.0514
CGGCGGGA	-0.185
AAGGAATA	0.148
ATACGCCA	-0.0163
AAATAACC	0.00655
AATTTTGG	0.0399
CCAAAGAG	-0.149

Sequence	PBM E-score
TCGTATAA	0.237
GAGGTGAA	-0.119
CGTCGAAA	-0.0616
GCTTCAAC	0.00279
CCCTCCGG	-0.413
GGCCGAAC	-0.174
GCATGTCA	0.0564
GAGCCGCC	-0.147
CTGTCCCA	-0.3
CTCGTCAA	-0.157
AGTTATAC	0.155
ACCGAGAC	-0.102
ACTAAGAC	0.0182
GTTCGCGA	0.0116
GAGAGCAA	-0.116
AGCTTTAA	0.064
GAATCGTA	-0.00198
GCTAAACC	-0.261
AGATTACA	0.286
CCTCAGCC	-0.149
GGTCAACC	-0.107
ATTGGACC	-0.152
CAGCACCC	-0.208
GCTGGCAC	-0.314
ATTTGTCC	0.119

Part of the list above, with bars between the fields:
Sequence | PBM E-score
CTCGTCAA | -0.157
AGTTATAC | 0.155
ACCGAGAC | -0.102
ACTAAGAC | 0.0182
GTTCGCGA | 0.0116
GAGAGCAA | -0.116

Continued:

Sequence	PBM E-score
ATCAAGAG	0.133
CTCACCAA	0.155
ACGTGCGA	-0.178
ATGGAATC	0.242
TAGCTATA	0.0319
CTCATGGC	-0.0334
GCCCTAAC	0.0312
AAGGACTG	-0.219
GTTCCCGA	-0.11
CTTTCTCC	-0.225
CTAATCAC	0.248
CTGATGCC	0.0304
ACTACATA	0.207
AACCGCAA	0.166
GTCTCTAA	-0.111
CCGTCTAG	-0.189
ACACAGTC	-0.0243
CCAAAGCC	-0.114
CGGCCACA	-0.177
GCATGCTA	-0.114
ACGACCCA	-0.0226
ATGTATAC	0.198
CATTGATC	0.166
GAACTTTA	-0.102
GACGAGCC	-0.125

At a glance, some entries already given:
Sequence	PBM E-score
ACGTGCGA	-0.178
ATGGAATC	0.242
TAGCTATA	0.0319

Further records

Sequence	PBM E-score
CGGGCCTA	-0.236
CAAAAGGC	-0.118
TTAAACAA	0.0568
CATCCGGG	-0.181
CATTTTCC	0.198
GGCACGCC	-0.293
GTATACGA	0.00741
AATGAACA	0.203
AACCTCAT	0.0154
GCAACAGA	-0.0911
ATCCCGCC	0.0426
ACCACAGG	-0.219
GGCTATAA	-0.0423
AGATAGAT	-0.00891
ATCCTTAG	-0.0893
ATCTCACG	0.0285
ACCCGGAT	-0.156
ACACGGCG	0.00679
CGGACCAG	-0.181
CAAAGCGC	0.0132
ATGAATGG	0.301
CGCAATTC	0.158
